# From patent US8148510B2, “Antifungal polypeptides” (Pioneer Hi-Bred International, Inc., priority 2004, dated 2012)
# Experiment: accumulation in T0 generation transgenic maize plants, western blot
# Settings: T0 PHP22300 maize plants
substance,measurement,setting,value
"LBNL-5220: antifungal polypeptide (55 amino acids, mature mass 6174 Da) isolated from Penicillium simplicissimum fermentation broth (LKYTGTCTRANNQCKYKGQNDRDTFVKCPTFANKKCTRDGAPCSFDSYSRAVTCD)",accumulation of LBNL-5220 in upper stalk tissue,about 10 days after pollination,greater than 20 μg of LBNL-5220/g DW
same,accumulation of LBNL-5220 in leaf tissue,~V7 stage,approximately 2 μg of LBNL-5220/g FW
